According to paper PMC11914185:
These are yes or no findings as the source states them, for the method shown. Binding seen in cells or lysates may run through a third protein. Some binding calls cover weakened binding; strength is not graded here.

Protein sequences, listed by entry. Tags and fused reporters are not part of them.
UniProt Q9Y4A5: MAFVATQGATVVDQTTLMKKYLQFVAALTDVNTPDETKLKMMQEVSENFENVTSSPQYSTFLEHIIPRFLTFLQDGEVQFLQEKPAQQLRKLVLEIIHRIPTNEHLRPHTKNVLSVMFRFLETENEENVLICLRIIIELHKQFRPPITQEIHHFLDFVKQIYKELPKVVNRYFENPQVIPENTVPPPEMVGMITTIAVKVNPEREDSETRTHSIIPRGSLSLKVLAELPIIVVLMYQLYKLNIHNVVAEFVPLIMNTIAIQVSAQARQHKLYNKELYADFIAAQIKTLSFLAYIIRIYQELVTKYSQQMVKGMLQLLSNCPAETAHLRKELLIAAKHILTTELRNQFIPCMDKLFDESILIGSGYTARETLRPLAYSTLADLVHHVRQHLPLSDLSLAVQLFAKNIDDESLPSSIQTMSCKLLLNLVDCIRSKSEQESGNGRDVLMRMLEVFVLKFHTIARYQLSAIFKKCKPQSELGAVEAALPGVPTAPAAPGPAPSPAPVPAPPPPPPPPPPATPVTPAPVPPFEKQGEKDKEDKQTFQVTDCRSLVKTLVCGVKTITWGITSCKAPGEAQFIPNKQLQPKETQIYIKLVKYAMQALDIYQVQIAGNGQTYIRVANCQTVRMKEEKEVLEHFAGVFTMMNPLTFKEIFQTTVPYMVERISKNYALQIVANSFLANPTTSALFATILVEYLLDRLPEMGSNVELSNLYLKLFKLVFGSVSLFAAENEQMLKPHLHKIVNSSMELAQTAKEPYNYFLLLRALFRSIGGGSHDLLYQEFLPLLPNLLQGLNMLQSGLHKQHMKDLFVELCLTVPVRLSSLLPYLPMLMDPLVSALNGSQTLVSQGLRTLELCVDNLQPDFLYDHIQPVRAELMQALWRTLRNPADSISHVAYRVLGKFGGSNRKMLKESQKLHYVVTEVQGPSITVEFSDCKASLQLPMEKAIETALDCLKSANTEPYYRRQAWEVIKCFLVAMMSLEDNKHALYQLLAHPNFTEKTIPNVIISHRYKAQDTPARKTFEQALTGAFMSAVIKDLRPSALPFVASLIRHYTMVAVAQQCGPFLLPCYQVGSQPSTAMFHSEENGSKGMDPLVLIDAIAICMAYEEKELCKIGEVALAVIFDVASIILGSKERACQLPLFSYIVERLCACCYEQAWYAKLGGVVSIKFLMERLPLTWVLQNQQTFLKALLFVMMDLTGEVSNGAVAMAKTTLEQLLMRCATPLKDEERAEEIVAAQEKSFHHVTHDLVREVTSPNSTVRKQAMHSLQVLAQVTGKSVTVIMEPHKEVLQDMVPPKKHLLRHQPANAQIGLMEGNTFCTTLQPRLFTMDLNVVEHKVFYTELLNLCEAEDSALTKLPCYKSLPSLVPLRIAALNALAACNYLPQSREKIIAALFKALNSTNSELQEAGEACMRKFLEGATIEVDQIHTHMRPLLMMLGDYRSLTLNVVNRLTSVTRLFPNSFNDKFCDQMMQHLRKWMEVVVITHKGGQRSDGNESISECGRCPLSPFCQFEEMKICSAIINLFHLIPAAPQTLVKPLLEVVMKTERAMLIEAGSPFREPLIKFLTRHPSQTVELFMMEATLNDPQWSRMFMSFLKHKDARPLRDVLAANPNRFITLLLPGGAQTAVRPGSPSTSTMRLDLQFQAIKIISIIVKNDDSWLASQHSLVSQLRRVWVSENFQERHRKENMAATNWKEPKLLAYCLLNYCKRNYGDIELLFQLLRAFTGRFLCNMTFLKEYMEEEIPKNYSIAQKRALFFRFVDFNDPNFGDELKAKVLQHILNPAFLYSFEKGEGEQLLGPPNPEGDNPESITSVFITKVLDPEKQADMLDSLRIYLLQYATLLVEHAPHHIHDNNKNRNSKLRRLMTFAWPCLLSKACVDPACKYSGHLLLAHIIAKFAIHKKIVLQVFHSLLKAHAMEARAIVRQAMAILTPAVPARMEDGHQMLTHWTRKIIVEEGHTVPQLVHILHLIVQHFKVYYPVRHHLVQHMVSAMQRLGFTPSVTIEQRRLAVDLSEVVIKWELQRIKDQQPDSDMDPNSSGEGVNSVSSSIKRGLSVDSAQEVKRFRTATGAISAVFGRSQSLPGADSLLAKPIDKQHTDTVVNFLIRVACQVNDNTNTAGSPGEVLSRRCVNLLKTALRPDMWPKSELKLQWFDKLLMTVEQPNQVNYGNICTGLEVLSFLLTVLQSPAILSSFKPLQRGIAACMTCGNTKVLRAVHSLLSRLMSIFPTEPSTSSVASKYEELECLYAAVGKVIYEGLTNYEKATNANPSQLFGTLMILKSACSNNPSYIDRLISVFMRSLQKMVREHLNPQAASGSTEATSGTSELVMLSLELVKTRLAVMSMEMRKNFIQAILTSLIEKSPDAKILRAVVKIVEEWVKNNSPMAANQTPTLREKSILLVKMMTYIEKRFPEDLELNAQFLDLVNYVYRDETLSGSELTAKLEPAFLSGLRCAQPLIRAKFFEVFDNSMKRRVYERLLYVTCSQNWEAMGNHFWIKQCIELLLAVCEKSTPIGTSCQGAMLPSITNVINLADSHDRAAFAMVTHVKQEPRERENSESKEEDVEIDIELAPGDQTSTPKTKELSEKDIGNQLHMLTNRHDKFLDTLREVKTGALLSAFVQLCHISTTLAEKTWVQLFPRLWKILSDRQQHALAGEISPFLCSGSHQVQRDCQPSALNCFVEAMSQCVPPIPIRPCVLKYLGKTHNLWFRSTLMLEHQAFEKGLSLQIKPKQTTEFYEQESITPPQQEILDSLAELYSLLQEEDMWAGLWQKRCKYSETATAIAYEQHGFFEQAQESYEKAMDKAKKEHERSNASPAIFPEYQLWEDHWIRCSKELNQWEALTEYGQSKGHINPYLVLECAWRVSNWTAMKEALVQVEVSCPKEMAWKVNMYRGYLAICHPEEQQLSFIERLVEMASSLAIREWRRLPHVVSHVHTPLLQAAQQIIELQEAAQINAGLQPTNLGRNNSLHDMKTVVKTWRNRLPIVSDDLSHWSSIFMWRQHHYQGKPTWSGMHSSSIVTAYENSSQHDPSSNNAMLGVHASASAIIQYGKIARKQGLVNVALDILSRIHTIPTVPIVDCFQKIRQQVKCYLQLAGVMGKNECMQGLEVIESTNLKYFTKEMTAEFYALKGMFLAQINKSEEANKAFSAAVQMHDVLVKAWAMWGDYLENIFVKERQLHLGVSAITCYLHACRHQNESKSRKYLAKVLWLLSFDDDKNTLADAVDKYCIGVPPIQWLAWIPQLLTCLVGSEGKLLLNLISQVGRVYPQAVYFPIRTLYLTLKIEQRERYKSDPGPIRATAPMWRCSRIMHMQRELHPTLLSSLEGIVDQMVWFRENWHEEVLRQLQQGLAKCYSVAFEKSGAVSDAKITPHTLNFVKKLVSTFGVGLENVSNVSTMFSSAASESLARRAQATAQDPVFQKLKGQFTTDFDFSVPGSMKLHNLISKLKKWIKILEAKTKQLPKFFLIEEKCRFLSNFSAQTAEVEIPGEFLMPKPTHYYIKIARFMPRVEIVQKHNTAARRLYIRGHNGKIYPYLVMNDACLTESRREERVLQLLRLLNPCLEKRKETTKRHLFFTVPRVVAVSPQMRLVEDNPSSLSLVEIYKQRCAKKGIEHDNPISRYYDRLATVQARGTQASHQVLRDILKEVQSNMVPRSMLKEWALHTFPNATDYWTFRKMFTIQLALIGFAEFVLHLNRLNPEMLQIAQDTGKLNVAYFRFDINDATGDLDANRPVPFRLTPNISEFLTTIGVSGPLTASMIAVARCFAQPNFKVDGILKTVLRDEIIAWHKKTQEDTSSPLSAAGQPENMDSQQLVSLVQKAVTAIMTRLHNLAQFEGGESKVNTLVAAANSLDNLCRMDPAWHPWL
UniProt Q9HCK8: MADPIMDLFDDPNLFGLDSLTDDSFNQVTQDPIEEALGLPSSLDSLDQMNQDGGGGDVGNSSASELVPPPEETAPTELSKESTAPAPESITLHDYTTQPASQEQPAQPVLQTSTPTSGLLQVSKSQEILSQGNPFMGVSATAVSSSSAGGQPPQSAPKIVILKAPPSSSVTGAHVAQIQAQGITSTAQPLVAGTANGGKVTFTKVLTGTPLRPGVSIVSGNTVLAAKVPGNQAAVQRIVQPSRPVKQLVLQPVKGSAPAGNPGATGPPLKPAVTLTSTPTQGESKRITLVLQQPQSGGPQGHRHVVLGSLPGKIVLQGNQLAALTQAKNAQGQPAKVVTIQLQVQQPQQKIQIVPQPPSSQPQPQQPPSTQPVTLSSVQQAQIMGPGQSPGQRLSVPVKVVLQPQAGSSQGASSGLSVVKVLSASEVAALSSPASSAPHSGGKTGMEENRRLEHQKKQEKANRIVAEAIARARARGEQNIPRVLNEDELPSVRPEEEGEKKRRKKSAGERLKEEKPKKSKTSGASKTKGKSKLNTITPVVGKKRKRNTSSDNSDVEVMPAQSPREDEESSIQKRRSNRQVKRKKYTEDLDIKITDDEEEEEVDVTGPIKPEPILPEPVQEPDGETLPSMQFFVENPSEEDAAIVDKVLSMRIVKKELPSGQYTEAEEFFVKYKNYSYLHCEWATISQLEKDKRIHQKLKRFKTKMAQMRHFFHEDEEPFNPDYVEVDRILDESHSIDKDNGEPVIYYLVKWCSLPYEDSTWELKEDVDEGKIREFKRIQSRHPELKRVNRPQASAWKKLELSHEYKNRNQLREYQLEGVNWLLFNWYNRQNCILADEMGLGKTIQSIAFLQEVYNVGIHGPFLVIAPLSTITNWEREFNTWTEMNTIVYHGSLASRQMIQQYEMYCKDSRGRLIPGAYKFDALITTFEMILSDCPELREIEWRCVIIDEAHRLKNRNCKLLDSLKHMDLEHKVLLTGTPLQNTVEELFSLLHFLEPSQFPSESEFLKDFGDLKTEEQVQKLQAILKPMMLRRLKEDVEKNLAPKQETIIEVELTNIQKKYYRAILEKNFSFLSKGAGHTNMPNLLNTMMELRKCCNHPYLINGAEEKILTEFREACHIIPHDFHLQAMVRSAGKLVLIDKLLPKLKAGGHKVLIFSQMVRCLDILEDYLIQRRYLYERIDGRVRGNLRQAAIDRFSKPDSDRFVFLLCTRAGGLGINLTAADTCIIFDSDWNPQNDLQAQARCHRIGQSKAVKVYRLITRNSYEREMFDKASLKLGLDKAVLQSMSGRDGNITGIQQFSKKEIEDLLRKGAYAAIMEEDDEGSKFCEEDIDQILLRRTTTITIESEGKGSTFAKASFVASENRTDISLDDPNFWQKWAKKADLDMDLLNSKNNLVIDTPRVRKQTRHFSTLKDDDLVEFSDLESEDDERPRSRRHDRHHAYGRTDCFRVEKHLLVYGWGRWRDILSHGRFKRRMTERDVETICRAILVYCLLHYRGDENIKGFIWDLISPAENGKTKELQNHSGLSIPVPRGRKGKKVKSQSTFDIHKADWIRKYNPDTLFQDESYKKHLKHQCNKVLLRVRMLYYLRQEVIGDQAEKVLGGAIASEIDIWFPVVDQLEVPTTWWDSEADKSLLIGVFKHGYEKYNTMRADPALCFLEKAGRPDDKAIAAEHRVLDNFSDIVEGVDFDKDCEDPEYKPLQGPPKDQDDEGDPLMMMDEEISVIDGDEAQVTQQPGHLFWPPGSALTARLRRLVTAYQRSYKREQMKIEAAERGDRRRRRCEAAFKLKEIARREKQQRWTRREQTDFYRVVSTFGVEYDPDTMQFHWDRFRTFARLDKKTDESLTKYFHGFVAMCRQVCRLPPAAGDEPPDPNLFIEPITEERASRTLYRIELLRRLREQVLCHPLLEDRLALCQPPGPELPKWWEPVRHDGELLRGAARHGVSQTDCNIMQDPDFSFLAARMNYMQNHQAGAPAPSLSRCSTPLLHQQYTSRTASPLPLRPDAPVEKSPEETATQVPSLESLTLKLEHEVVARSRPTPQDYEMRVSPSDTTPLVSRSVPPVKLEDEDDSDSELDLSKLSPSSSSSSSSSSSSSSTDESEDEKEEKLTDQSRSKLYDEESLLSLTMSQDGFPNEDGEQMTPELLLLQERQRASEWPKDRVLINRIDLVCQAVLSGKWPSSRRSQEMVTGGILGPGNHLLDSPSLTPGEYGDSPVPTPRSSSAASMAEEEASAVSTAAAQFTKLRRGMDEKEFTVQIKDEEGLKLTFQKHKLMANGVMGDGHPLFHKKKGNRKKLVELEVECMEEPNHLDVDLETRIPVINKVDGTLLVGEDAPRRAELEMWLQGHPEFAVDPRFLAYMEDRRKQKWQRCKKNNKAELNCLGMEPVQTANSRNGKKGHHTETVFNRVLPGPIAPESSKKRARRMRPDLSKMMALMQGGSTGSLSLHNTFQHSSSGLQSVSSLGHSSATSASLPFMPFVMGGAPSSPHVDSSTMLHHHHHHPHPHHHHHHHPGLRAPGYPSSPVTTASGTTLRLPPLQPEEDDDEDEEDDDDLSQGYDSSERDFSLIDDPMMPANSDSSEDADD

What was measured:
[1] = molecular target: TRRAP (human (endogenous in hNSCs)) (UniProt Q9Y4A5); assay: co-IP; endogenous proteins in 250 ul hNSC nuclear extract with 38 units Benzonase; TRRAP antibody or CHD8 antibody, 2 h at 4°C, ProtG Dynabeads in C-100 buffer; IgG control; western blot
[2] = molecular target: Chromodomain helicase DNA-binding protein 8 (CHD8), endogenous (human (endogenous in hNSCs)) (UniProt Q9HCK8); assay: as above

Substance | binding [1] | binding [2]
Chromodomain helicase DNA-binding protein 8 (CHD8), endogenous (from UniProt Q9HCK8 1-2581) | binds | –
TRRAP (from UniProt Q9Y4A5 1-3859) | – | binds
